Measured values reported in PubChem BioAssay AID504467 (National Center for Advancing Translational Sciences (NCATS), 2011).
Hit rate of the full screen: of about 330,000 compounds, about 7,700 (2.3%) were called active. The inconclusive results got no clear call from the source; some entries with a clear call stand among them for comparison. Calls follow the shape of the dose curve; as a rule, active = well fitted inhibition curve with a large enough effect; inconclusive = small, poorly fitted or top-dose-only effect, or effect the other way; inactive = flat fitted curve, though single readings scatter. Potencies beside an inconclusive call are fits to weak or partial responses and may not hold up.
Potency is read from the fitted curve at half-maximal effect.

Test: qHTS screen for small molecules that inhibit ELG1-dependent DNA repair in human embryonic kidney (HEK293T) cells expressing luciferase-tagged ELG1; also: nearly all actives have a fitted effect of over 55% in size
Conditions: HEK293T ELG1-luciferase reporter, luminescence, 16 h, DNA damage induced by 5-fluorouridine; series mostly up to 46.1 µM
In short: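 Step one: seed 2,000 cells per well. Step two: pin-transfer compound or DMSO alongside 5-fluorouridine. Step three: incubate 16 hr, 37 °C, 5% CO2. Step four: add ONE-Glo, wait 30 min, read luminescence.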
With COc1cc(C(=O)NNC(=O)c2ccc(F)cc2)ccc1OCC(=O)N1CCOCC1 the Potency was inconclusive: 8.2 µM [activator, partial curve, poor fit]. In the case of CCOC(=O)c1csc(-c2sccc2Br)n1, the Potency is reported as inconclusive: 8.2 µM [activator, partial curve]. For CCn1c(-c2cccc(Cl)c2)n[nH]c1=S, the Potency was “inactive”. With C=CCC[C@H](Cc1ccc(F)cc1)C(=O)OC[C@@H](NC(=O)[C@H](CC=C)CC(=O)NCCO)C(C)(C)C the Potency was “inactive”. For Cc1noc(/C=C/c2nn(C)cc2Cl)c1[N+](=O)[O-], the Potency was inconclusive: 29.1 µM [inhibitor, single point]. In the case of CN(C)c1nc(NCc2ccccc2)nc(N/N=C/c2ccc3c(c2)OCO3)n1, the Potency is reported as inconclusive: 25.9 µM [inhibitor, single point]. In the case of CC(C)c1ccc(N(CC(=O)NCc2ccc(F)cc2)C(=O)c2csnn2)cc1, the Potency is reported as inconclusive: 16.4 µM [inhibitor, partial curve]. In the case of O=C(c1ccco1)N1CCN(c2ncnc3c2nnn3Cc2ccccc2Cl)CC1, the Potency is reported as active: 23.1 µM. With NS(=O)(=O)c1ccc(NC(=S)N2CCC(Cc3ccccc3)CC2)cc1 the Potency was inconclusive: 10.3 µM [inhibitor, partial curve]. In the case of COc1cc(SC)ccc1C(=O)Nc1ccc2c(c1)CCC2, the Potency is reported as inconclusive: 5.17 µM [activator, partial curve]. In the case of COc1cccc(-c2cc(C(=O)Nc3cccc(O)c3)no2)c1, the Potency is reported as inconclusive: 6.51 µM [activator, single point]. In the case of CC(C)(C)c1ccc(/C=C/C(=O)Nc2ncccn2)cc1, the Potency is reported as inconclusive: 9.2 µM [activator, partial curve]. In the case of COc1cccc(-c2cn3nc(C)c(C)nc3n2)c1, the Potency is reported as inconclusive: 1.46 µM [activator, partial curve]. In the case of CCOC(=O)c1cc(-c2cccs2)nc2onc(C)c12, the Potency is reported as “inactive”. In the case of CCCOC1CCCN(C(=O)c2cc(COc3c(F)cccc3F)on2)C1 (stereo not given), the Potency is reported as inconclusive: 11.6 µM [activator, partial curve]. With COc1cc(OC)cc(-c2nc(-c3ccccc3)no2)c1 the Potency was inconclusive: 5.17 µM [activator, partial curve]. In the case of CC(CCc1ccccc1)NC(=O)COC(=O)c1ccc(S(C)(=O)=O)c([N+](=O)[O-])c1 (stereo not given), the Potency is reported as inconclusive: 20.6 µM [activator, single point]. For O=C(N/N=C/c1cc2c3c(c1O)CCCN3CCC2)c1ccccc1O, the Potency was inconclusive: 4.11 µM [inhibitor, partial curve, poor fit]. With COc1ccc(C)cc1S(=O)(=O)N1CCCC(N2CCOCC2)C1 (stereo not given) the Potency was “inactive”. With O=C(CNC(=S)N(Cc1ccccc1)Cc1cccs1)NCc1ccc(F)cc1 the Potency was inconclusive: 29.1 µM [inhibitor, single point]. With Cc1ccc(-c2noc(CN(C(=O)CCN3C(=O)c4ccccc4C3=O)C(C)C)n2)cc1 the Potency was “inactive”. For CCn1c(COc2ccc(C)cc2)nnc1SCC(=O)C(C)(C)C, the Potency was inconclusive: 29.1 µM [inhibitor, single point]. For CS(=O)(=O)N(Cc1ccc(Cl)cc1)c1ccc(C(=O)NCc2ccccn2)cc1, the Potency was “inactive”. With O=C1OCCC1Sc1nc2cc(Cl)ccc2n1Cc1ccccc1 (stereo not given) the Potency was “inactive”. In the case of CCCc1cc(C(=O)Nc2ccccc2SC)no1, the Potency is reported as inconclusive: 16.4 µM [activator, partial curve, poor fit]. With COc1cc(CNC(C)c2ccccc2)cc(Br)c1OCc1ccc(F)cc1 (stereo not given) the Potency was “inactive”. In the case of Cn1c(N)c(C(=O)Nc2ccc3ccccc3c2)sc1=S, the Potency is reported as inconclusive: 4.11 µM [activator, partial curve]. In the case of COc1ccc(-c2cnnn2-c2ccc(NC(=O)/C=C/c3ccc(OC)c(OC)c3)cc2)cc1, the Potency is reported as active: 5.8 µM. In the case of CCOCCCn1c(=S)[nH]c2cc(C(=O)NC3CCCC(C)C3C)ccc2c1=O (stereo not given), the Potency is reported as inconclusive: 29.1 µM [activator, single point]. For Cc1cc(NC(=O)CSc2nc3c(cc2C#N)CCCCC3)no1, the Potency was inconclusive: 5.17 µM [activator, partial curve]. With c1ccc(-c2csc3nnc(SCc4ccc5c(c4)OCO5)n23)cc1 the Potency was inconclusive: 29.1 µM [inhibitor, single point]. For CC1=NN(C(=O)c2ccc(C)o2)C(O)(c2ccccc2)C1 (stereo not given), the Potency was “inactive”. For Cc1ccc(NC2c3ncccc3C(=O)N2c2ccccc2C)cc1C (stereo not given), the Potency was “inactive”. In the case of COc1cc2c(cc1OC)C(C)N(C(=O)C1COc3ccccc3O1)CC2 (stereo not given), the Potency is reported as active: 23.1 µM. In the case of CCn1cc(C(=O)NCc2ccc3c(c2)OCO3)c2cc(OC)c(OC)cc2c1=O, the Potency is reported as inconclusive: 16.4 µM [inhibitor, single point]. For CC(C)(C)CN1CCN(Cc2nc(-c3ccc(F)cc3)cs2)CC1CCO (stereo not given), the Potency was “inactive”. With CCNc1ccc(C(=O)OCC)cc1NC(=O)c1cccc(S(=O)(=O)N(C)c2ccccc2)c1 the Potency was active: 7.31 µM. In the case of CCOC(=O)[C@@H]1[C@H]2COc3ccc(Br)cc3[C@H]2N2C(=O)N(c3ccc(Cl)cc3)C(=O)[C@]12C, the Potency is reported as “inactive”. In the case of Cc1cc[n+](C(C)C(=O)c2ccc(-c3ccccc3)cc2)cc1 (stereo not given), the Potency is reported as active: 2.06 µM. In the case of Cn1ccnc1SCC(=O)c1ccc(Br)cc1, the Potency is reported as inconclusive: 18.4 µM [activator, partial curve]. With CCOC(=O)C1CCN(S(=O)(=O)c2cccc(-c3cn4cc(Cl)ccc4n3)c2)CC1 the Potency was inconclusive: 23.1 µM [inhibitor, single point]. For O=C(NCCc1ccc(Cl)cc1)c1ccc(CS(=O)Cc2ccccc2Cl)o1 (stereo not given), the Potency was inconclusive: 23.1 µM [inhibitor, single point]. For O=C(CN1CCCCCC1)Nc1cccc(Br)c1, the Potency was inconclusive: 6.51 µM [activator, single point]. In the case of Cc1cccc(N(CC(=O)NC(C)(C)C)C(=O)CS(=O)CC(=O)Nc2ccc(F)cc2)c1 (stereo not given), the Potency is reported as inconclusive: 29.1 µM [inhibitor, single point]. For Nc1[nH]c(N=NC(=O)c2ccc(F)cc2)c2ccccc12, the Potency was inconclusive: 10.3 µM [activator, partial curve]. For Cc1ccc(NC2=C(Cl)C(=O)N(C3CCCCC3)C2=O)cc1, the Potency was inconclusive: 14.6 µM [activator, partial curve]. In the case of Nc1ncc(Br)cc1S(=O)(=O)NCCC(=O)NC1CCCCC1, the Potency is reported as “inactive”. With Cc1nc(Nc2ccccc2)c2oc3ccc(Cl)cc3c2n1 the Potency was inconclusive: 11.6 µM [activator, partial curve, poor fit]. In the case of CCCCNc1cnn(-c2ccccc2)c(=O)c1Cl, the Potency is reported as inconclusive: 16.4 µM [activator, partial curve]. With O=C(NC1CCCCCC1)c1ccc(CN2CCOCC2)cc1 the Potency was inconclusive: 16.4 µM [activator, partial curve]. In the case of COc1ccccc1N1C(=O)N(C(C)=O)C2C1Nc1ccccc1N2C (stereo not given), the Potency is reported as inconclusive: 2.06 µM [inhibitor, partial curve, poor fit]. With COCCNc1nc2ccccc2n1CC(=O)c1ccc(OC)c(OC)c1 the Potency was “inactive”. For O=C(CSc1nc2ccccc2[nH]1)N1CCCCC1, the Potency was inconclusive: 14.6 µM [activator, partial curve]. In the case of Cc1cc(C)c(C)c(S(=O)(=O)N2CCN(C(=O)C3CSC4(C)CCC(=O)N34)CC2)c1C (stereo not given), the Potency is reported as inconclusive: 29.1 µM [inhibitor, single point]. For CCN(CC)S(=O)(=O)c1cccc(C(=O)N[C@H](C(=O)Nc2nc3ccc(F)cc3s2)C(C)C)c1, the Potency was inconclusive: 29.1 µM [inhibitor, single point]. For COc1cc2ncnc(NCc3ccc(Cl)cc3)c2cc1OC, the Potency was inconclusive: 20.6 µM [inhibitor, single point]. With Cc1ccc(-n2nc(C)c(NC(=O)COC(=O)c3ccccc3NCCO)c2C)cc1 the Potency was inconclusive: 25.9 µM [inhibitor, single point]. For Cc1c2ccccc2nc2c(F)c(NCCO)c(F)c(F)c12, the Potency was inconclusive: 14.6 µM [activator, partial curve, poor fit]. In the case of CCCc1nnc(NC(=O)CCC(=O)NC2CCCC2)s1, the Potency is reported as “inactive”. In the case of CCN(Cc1ccccc1)C(=O)CCc1nc(-c2ccc(C)cc2)no1, the Potency is reported as inconclusive: 20.6 µM [inhibitor, single point]. In the case of COn1c(-c2ccc(C)cc2)nc2ncccc21, the Potency is reported as inconclusive: 23.1 µM [activator, single point]. For CC1CN(C(=O)CNC(=O)COc2ccccc2)CC(C)O1 (stereo not given), the Potency was inconclusive: 18.3 µM [activator, partial curve, poor fit]. For CC(=O)N1CCc2cc(S(=O)(=O)CCC(=O)N3CCc4ccccc4C3)ccc21, the Potency was “inactive”. With COc1cccc(/C=N/n2c(C3CCCCC3)n[nH]c2=S)c1OC the Potency was inconclusive: 14.6 µM [inhibitor, partial curve, poor fit]. With COc1cccc(/C=N/Nc2ccc(C(=O)O)cc2)c1O the Potency was inconclusive: 0.073 µM [activator, full curve, poor fit]. For Cc1[nH]n(-c2ccccc2)c(=O)c1C=Nc1ccc(S(N)(=O)=O)cc1, the Potency was “inactive”. With Cc1ccc(OCC(=O)Oc2ccc(C)c(C)c2)cc1 the Potency was “inactive”. With COc1cc(S(=O)(=O)Nc2ccccc2N2CCCCC2)ccc1NC(C)=O the Potency was “inactive”. For CSCc1nc2sc(C(=O)Nc3nc(C)cs3)c(C)c2c(=O)[nH]1, the Potency was inconclusive: 5.17 µM [activator, full curve, poor fit]. For C=CCNc1nc(C2(C)CC3(CC(C)(C)OC3=O)C(=O)O2)cs1 (stereo not given), the Potency was inconclusive: 20.6 µM [inhibitor, partial curve].
